The other results are listed elsewhere or left out.
Assays:
Experiment in all cases: log2 fold change, soluble protein after heating vs DMSO (PISA); higher = thermal stabilisation; K562 lysate, 10 uM; active = over 0.2 and 3.5 SD of the protein, either way, in both replicates (recomputed)
vemurafenib = compound: CCCS(=O)(=O)Nc1ccc(F)c(C(=O)c2c[nH]c3ncc(-c4ccc(Cl)cc4)cc23)c1F [vemurafenib]
Method in brief: (§1)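 Pellets of K562 cells were dounce-homogenised in PBS pH 7.4 with 1 mM MgCl2, and the crude extract was held at 1 mg/mL protein for a 30 min treatment with 10 μM compound. Aliquots were heated for 3 min over 48°C-58°C and pooled before NP-40 was added to 0.5% at 4°C. The supernatant from 21,000xg for 90 min was quantified by TMTpro 16plex LC-MS/MS with channel sums equalised. Values are reported from duplicates as log-two fold change in thermal stability relative to solvent controls.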

Chains of the proteins cited; added tags and fusions are not shown. Lines headed by an entry give the natural chain unless they say otherwise; changes in a name come on top.
UniProt Q9NVV0: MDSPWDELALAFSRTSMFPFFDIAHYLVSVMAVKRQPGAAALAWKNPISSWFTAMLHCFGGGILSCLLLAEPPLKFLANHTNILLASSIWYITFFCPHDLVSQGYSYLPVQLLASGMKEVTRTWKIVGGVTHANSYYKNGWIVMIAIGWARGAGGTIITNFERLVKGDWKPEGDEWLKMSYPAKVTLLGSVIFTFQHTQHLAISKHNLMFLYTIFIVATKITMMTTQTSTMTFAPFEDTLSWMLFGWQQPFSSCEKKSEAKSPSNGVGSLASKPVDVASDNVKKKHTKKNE
UniProt P67936, whole entry, looked up: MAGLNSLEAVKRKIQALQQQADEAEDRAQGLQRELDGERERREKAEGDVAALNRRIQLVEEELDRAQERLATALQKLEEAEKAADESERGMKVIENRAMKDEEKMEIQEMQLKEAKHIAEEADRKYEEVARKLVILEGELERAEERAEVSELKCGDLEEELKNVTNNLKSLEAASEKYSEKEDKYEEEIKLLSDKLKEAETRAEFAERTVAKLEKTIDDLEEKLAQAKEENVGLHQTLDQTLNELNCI
UniProt P62995: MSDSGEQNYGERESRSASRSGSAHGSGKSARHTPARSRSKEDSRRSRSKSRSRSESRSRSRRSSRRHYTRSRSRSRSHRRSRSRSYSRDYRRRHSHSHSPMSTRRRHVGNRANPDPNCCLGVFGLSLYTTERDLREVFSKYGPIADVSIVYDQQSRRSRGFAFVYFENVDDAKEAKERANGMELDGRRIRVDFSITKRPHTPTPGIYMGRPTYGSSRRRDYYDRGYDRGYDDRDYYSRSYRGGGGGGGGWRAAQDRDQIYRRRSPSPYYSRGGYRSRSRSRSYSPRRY
UniProt P12270, whole entry, looked up: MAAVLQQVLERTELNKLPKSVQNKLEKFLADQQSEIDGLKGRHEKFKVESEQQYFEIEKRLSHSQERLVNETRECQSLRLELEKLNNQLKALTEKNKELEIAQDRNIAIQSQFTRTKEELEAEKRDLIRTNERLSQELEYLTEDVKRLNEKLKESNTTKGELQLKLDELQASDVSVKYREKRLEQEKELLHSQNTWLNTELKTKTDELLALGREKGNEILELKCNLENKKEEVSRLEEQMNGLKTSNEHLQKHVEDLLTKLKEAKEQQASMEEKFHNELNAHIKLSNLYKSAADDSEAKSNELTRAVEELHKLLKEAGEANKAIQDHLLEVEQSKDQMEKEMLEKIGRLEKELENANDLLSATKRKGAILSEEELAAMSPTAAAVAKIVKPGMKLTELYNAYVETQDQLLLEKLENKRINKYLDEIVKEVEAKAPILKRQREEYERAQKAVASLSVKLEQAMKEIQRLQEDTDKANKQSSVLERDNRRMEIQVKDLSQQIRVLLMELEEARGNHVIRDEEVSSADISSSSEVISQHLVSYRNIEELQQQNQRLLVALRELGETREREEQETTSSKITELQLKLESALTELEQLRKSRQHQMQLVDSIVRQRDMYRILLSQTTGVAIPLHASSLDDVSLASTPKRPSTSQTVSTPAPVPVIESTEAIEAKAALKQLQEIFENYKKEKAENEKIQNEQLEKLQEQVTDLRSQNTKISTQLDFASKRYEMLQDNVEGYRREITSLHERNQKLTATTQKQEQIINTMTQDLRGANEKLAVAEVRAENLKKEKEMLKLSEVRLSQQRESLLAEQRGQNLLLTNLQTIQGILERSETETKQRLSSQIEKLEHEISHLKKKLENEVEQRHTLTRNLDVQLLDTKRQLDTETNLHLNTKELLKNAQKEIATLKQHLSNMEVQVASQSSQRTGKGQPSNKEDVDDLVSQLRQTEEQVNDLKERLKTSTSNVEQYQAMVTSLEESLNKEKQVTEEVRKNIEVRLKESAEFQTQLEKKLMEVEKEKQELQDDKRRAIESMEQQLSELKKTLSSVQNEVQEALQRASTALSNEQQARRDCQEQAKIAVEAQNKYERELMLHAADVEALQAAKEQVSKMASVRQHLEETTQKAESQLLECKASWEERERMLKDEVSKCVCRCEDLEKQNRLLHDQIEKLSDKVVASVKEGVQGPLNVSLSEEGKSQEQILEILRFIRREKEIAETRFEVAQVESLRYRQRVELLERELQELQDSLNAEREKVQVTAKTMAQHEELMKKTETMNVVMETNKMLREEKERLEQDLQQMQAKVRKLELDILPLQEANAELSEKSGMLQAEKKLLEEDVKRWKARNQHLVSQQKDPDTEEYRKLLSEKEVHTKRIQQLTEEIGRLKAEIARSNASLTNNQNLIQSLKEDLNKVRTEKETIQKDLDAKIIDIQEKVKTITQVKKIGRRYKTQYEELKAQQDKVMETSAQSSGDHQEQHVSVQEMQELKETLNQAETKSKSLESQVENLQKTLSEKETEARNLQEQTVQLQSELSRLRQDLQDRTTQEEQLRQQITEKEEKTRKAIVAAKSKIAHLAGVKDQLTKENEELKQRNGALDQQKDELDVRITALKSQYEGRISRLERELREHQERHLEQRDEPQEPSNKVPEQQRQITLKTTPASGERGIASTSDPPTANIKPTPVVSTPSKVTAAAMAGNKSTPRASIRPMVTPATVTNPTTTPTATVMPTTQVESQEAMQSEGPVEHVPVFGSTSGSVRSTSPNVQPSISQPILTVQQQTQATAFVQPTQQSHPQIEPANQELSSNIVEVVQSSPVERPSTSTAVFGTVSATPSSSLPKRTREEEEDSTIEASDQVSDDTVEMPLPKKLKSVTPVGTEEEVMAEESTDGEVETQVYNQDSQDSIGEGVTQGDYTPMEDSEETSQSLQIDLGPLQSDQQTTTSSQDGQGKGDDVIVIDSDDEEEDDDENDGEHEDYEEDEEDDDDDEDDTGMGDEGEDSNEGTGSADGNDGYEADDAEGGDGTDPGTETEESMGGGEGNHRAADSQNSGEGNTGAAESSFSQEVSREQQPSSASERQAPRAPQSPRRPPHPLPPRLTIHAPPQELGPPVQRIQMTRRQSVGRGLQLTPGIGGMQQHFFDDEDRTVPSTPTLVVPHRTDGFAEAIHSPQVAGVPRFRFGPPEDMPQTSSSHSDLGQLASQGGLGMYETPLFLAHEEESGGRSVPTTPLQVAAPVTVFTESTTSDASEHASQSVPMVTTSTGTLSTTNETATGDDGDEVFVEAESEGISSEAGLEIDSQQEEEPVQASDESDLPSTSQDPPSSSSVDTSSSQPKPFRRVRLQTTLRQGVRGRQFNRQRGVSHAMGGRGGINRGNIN
UniProt Q9C0C2: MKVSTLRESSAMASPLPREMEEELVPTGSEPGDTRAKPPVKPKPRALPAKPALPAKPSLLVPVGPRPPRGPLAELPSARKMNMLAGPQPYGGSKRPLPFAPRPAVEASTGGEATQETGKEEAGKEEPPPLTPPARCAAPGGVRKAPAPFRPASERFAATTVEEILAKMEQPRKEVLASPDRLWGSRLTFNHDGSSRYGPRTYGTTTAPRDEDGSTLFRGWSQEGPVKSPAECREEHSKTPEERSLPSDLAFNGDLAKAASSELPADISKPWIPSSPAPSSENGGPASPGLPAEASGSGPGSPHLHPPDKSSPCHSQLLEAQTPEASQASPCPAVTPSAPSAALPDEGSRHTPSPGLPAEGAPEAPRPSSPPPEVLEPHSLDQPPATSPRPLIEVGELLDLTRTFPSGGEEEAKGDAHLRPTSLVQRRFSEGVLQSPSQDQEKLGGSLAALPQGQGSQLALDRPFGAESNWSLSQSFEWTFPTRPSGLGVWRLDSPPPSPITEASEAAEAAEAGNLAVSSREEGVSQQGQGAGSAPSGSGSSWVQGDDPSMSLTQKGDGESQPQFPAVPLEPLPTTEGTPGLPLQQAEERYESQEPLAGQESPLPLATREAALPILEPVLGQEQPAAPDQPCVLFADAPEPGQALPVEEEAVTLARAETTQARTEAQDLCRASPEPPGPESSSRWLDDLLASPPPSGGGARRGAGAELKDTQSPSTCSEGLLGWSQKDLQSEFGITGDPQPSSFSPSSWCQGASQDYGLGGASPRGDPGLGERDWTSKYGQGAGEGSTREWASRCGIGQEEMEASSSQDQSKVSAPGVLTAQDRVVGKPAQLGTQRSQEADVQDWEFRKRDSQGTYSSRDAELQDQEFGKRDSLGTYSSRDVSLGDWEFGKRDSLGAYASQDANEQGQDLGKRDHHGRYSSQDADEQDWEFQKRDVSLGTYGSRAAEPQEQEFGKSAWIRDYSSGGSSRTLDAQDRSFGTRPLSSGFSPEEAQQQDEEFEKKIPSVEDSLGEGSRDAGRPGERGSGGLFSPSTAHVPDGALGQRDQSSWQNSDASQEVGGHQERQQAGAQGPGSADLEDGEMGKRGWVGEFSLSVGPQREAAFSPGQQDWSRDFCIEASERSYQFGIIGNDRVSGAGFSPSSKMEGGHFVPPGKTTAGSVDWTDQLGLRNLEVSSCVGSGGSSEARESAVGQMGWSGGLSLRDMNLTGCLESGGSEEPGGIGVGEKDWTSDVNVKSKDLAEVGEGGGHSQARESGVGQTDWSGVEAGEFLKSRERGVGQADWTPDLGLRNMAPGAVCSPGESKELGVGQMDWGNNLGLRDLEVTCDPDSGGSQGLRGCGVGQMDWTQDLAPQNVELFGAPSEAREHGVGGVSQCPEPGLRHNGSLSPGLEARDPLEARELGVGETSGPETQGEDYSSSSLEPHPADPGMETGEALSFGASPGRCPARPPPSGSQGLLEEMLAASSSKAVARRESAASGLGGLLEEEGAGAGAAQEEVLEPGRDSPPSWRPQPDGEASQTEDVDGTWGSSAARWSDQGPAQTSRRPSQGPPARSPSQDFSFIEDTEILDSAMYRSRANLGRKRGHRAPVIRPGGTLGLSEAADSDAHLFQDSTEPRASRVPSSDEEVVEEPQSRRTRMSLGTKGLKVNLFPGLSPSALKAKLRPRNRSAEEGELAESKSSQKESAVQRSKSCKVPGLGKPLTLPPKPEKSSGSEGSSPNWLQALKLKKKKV
UniProt Q15025: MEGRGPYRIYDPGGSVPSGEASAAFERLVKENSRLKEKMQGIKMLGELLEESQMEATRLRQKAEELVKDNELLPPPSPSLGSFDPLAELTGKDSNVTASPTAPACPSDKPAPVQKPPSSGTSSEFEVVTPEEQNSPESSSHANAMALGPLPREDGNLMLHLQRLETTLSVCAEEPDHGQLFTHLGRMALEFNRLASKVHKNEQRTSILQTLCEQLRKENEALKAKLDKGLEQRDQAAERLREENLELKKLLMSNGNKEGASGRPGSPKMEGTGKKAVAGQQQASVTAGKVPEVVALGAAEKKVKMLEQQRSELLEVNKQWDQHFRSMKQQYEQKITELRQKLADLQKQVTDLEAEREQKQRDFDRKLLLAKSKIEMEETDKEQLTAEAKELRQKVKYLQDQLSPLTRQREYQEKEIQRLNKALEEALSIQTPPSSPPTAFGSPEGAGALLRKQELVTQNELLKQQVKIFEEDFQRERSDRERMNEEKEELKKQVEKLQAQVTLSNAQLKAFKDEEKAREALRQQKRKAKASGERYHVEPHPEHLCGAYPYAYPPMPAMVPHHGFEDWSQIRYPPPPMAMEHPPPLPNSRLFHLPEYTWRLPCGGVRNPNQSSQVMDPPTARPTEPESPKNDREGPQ
UniProt Q8NBN3: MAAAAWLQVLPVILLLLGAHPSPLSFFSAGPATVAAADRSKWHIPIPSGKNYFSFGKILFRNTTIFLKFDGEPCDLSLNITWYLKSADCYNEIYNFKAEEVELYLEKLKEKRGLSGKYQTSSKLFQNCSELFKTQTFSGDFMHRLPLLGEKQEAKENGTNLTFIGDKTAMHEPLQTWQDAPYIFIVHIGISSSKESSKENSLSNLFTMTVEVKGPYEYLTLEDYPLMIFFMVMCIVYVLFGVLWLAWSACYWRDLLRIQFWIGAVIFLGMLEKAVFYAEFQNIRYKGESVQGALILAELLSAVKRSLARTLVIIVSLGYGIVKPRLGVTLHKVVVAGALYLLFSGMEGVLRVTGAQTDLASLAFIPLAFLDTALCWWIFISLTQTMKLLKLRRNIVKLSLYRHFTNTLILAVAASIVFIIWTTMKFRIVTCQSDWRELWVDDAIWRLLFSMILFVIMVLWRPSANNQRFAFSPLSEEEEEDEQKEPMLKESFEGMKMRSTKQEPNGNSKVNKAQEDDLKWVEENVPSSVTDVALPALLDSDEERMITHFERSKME
UniProt Q5JU69: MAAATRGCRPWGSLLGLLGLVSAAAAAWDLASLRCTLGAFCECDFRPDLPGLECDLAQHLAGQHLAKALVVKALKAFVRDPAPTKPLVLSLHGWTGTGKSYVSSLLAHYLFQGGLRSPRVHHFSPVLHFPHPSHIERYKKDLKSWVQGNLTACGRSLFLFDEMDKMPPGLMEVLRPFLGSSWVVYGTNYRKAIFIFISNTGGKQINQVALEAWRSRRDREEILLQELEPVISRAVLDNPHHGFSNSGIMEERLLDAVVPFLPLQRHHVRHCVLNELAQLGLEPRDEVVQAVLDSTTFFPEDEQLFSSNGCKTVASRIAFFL
UniProt Q9H496: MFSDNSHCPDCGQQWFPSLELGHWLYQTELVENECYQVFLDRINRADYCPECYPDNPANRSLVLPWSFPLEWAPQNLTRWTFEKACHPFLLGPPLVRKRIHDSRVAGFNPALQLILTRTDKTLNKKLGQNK

[1] = compound: CCCS(=O)(=O)Nc1ccc(F)c(C(=O)c2c[nH]c3ncc(Cl)cc23)c1F
Method in brief: as §1

barasertib = compound: CCN(CCCOc1ccc2c(Nc3cc(CC(=O)Nc4cccc(F)c4)[nH]n3)ncnc2c1)CCOP(=O)(O)O [barasertib]
Method in brief: as §1

[2] = compound: CC[C@@H]1C(=O)N(C)c2cnc(Nc3ccc(C(=O)NC4CCN(C)CC4)cc3OC)nc2N1C1CCCC1
Method in brief: as §1

volasertib = compound: CC[C@@H]1C(=O)N(C)c2cnc(Nc3ccc(C(=O)N[C@H]4CC[C@H](N5CCN(CC6CC6)CC5)CC4)cc3OC)nc2N1C(C)C [volasertib]
Method in brief: as §1

[3] = compound: CCn1c(C(=O)N(C2CC2)C2CC2)cc2c3c(ncn3C)c(Nc3cc(C)n(C)n3)nc21
Method in brief: as §1

[4] = compound: CCn1cc(-c2ccnc3[nH]c(-c4cccc(CN(C)C)c4)cc23)c(-c2ccc(NC(=O)N(C)C)cc2)n1
Method in brief: as §1

[5] = compound: CN1CCC(CNc2ccc3ncc(-c4cccc(OC(F)(F)F)c4)n3n2)CC1
Method in brief: as §1

saracatinib = compound: CN1CCN(CCOc2cc(OC3CCOCC3)c3c(Nc4c(Cl)ccc5c4OCO5)ncnc3c2)CC1 [saracatinib]
Method in brief: as §1

sotrastaurin = compound: CN1CCN(c2nc(C3=C(c4c[nH]c5ccccc45)C(=O)NC3=O)c3ccccc3n2)CC1 [sotrastaurin]
Method in brief: as §1

alvocidib = compound: CN1CC[C@H](c2c(O)cc(O)c3c(=O)cc(-c4ccccc4Cl)oc23)[C@H](O)C1 [alvocidib]
Method in brief: as §1

Tubastatin A = compound: CN1CCc2c(c3ccccc3n2Cc2ccc(C(=O)NO)cc2)C1 [Tubastatin A]
Method in brief: as §1

[6] = compound: CNC(=O)C1=CC=CC=C1NC2=NC(=NC=C2Cl)NC3=C(C=C(C=C3)N4CCOCC4)OC
Method in brief: as §1

defactinib = compound: CNC(=O)c1ccc(Nc2ncc(C(F)(F)F)c(NCc3nccnc3N(C)S(C)(=O)=O)n2)cc1 [defactinib]
Method in brief: as §1

[7] = compound: CNc1nc(-c2ccc3c(N)n[nH]c3c2)cc(N2C[C@@H](C(=O)NC3CCCCC3)CC[C@H]2C)n1
Method in brief: as §1

encorafenib = compound: COC(=O)N[C@@H](C)CNc1nccc(-c2cn(C(C)C)nc2-c2cc(Cl)cc(NS(C)(=O)=O)c2F)n1 [encorafenib]
Method in brief: as §1

[8] = compound: COC(=O)[C@H](CCSC)NC(=O)C1=C(C=C(C=C1)NC[C@H](CS)N)C2=CC=CC=C2
Method in brief: as §1

alisertib = compound: COc1cc(Nc2ncc3c(n2)-c2ccc(Cl)cc2C(c2c(F)cccc2OC)=NC3)ccc1C(=O)O [alisertib]
Method in brief: as §1

[9] = compound: COc1cc2nc(-c3cc(F)ccc3O)nc(N[C@@H]3CNC[C@H]3C(C)(C)O)c2cc1OC
Method in brief: as §1

gefitinib = compound: COc1cc2ncnc(Nc3ccc(F)c(Cl)c3)c2cc1OCCCN1CCOCC1 [gefitinib]
Method in brief: as §1

Target | log2 fold change (vemurafenib) | log2 fold change [1] | log2 fold change (barasertib) | log2 fold change [2] | log2 fold change (volasertib) | log2 fold change [3] | log2 fold change [4] | log2 fold change [5] | log2 fold change (saracatinib) | log2 fold change (sotrastaurin) | log2 fold change (alvocidib) | log2 fold change (Tubastatin A) | log2 fold change [6] | log2 fold change (defactinib) | log2 fold change [7] | log2 fold change (encorafenib) | log2 fold change [8] | log2 fold change (alisertib) | log2 fold change [9] | log2 fold change (gefitinib)
TMEM38B (UniProt Q9NVV0) | inactive: -0.016 | inactive: 0.027 | inactive: -0.001 | inactive: -0.011 | inactive: -0.007 | inactive: -0.08 | inactive: -0.27 | inactive: 0.108 | inactive: -0.034 | inactive: 0.042 | inactive: -0.102 | inactive: 0.038 | inactive: -0.017 | inactive: 0.09 | inactive: 0.085 | inactive: 0.016 | inactive: -0.073 | inactive: -0.011 | inactive: 0.017 | inactive: -0.016
TMEM63A (UniProt O94886) | inactive: -0.001 | inactive: -0.016 | inactive: 0 | inactive: -0.023 | inactive: 0.003 | inactive: 0.048 | inactive: 0.121 | inactive: -0.039 | inactive: -0.011 | inactive: 0.032 | inactive: -0.001 | inactive: 0.053 | inactive: 0.007 | inactive: -0.046 | inactive: -0.127 | inactive: 0.044 | inactive: -0.068 | inactive: 0.045 | inactive: 0.013 | inactive: -0.073
TPM4 isoform 2 (UniProt P67936) | inactive: 0.031 | inactive: -0.016 | inactive: 0.021 | inactive: 0.052 | inactive: 0.005 | inactive: 0.048 | active: 0.525 | inactive: -0.231 | inactive: -0.001 | inactive: -0.03 | inactive: 0.062 | inactive: 0.03 | inactive: -0.027 | inactive: -0.059 | inactive: 0.028 | inactive: -0.004 | inactive: -0.077 | inactive: -0.098 | inactive: -0.01 | inactive: -0.004
TOPBP1 (UniProt Q92547) | inactive: 0.024 | inactive: -0.08 | inactive: 0.018 | inactive: 0.012 | inactive: -0.079 | inactive: -0.029 | active: 0.305 | inactive: -0.071 | inactive: -0.003 | inactive: 0.02 | inactive: 0.024 | inactive: -0.067 | inactive: 0.033 | inactive: 0.047 | inactive: 0.01 | inactive: -0.024 | inactive: 0.108 | inactive: -0.039 | inactive: 0.034 | inactive: 0.008
TMEM97 (UniProt Q5BJF2) | inactive: 0.076 | inactive: -0.027 | inactive: 0.037 | inactive: 0.028 | inactive: 0.099 | inactive: -0.048 | active: -0.327 | inactive: 0.173 | inactive: 0.002 | inactive: -0.08 | inactive: -0.081 | inactive: 0.114 | inactive: -0.016 | inactive: -0.021 | inactive: 0.091 | inactive: -0.008 | inactive: -0.042 | inactive: -0.026 | inactive: 0.014 | inactive: -0.017
TRA2B (UniProt P62995) | inactive: 0.042 | inactive: 0.004 | inactive: -0.01 | inactive: 0.015 | inactive: -0.015 | inactive: -0.008 | inactive: 0.008 | inactive: -0.004 | inactive: -0.049 | inactive: 0.027 | inactive: 0 | inactive: 0.001 | inactive: 0.02 | inactive: -0.067 | inactive: 0.038 | inactive: 0.056 | inactive: 0.055 | inactive: -0.007 | inactive: -0.001 | inactive: 0.013
TMEM63B (UniProt Q5T3F8) | inactive: 0.02 | inactive: 0.004 | inactive: -0.062 | inactive: 0.046 | inactive: 0.002 | inactive: 0.074 | inactive: -0.092 | inactive: 0.074 | inactive: 0.044 | inactive: -0.038 | inactive: -0.01 | inactive: 0.008 | inactive: -0.019 | inactive: 0.043 | inactive: -0.029 | inactive: 0.022 | inactive: -0.01 | inactive: -0.04 | inactive: -0.003 | inactive: 0.055
TPR (UniProt P12270) | inactive: 0.003 | inactive: -0.006 | inactive: -0.003 | inactive: 0.068 | inactive: 0.021 | inactive: -0.017 | inactive: 0.089 | inactive: -0.011 | inactive: 0 | inactive: 0.005 | inactive: 0.013 | inactive: 0.033 | inactive: 0.003 | inactive: -0.014 | inactive: 0.024 | inactive: 0.005 | inactive: -0.03 | inactive: -0.01 | inactive: -0.003 | inactive: 0.021
TNKS1BP1 (UniProt Q9C0C2) | inactive: 0.047 | inactive: 0.01 | inactive: -0.05 | inactive: 0.089 | inactive: 0.012 | inactive: 0 | inactive: 0.002 | inactive: 0.019 | inactive: 0.016 | inactive: 0.007 | inactive: -0.037 | inactive: 0.018 | inactive: 0.001 | inactive: -0.003 | inactive: -0.003 | inactive: 0.034 | inactive: -0.044 | inactive: -0.008 | inactive: 0.012 | inactive: -0.015
TNIP1 (UniProt Q15025) | inactive: -0.013 | inactive: -0.031 | inactive: 0.028 | inactive: 0.001 | inactive: 0.04 | inactive: -0.007 | inactive: -0.159 | inactive: 0.011 | inactive: 0.038 | inactive: 0.022 | inactive: -0.009 | inactive: -0.017 | inactive: -0.002 | inactive: 0.042 | inactive: 0.009 | inactive: 0.018 | inactive: -0.038 | inactive: 0 | inactive: -0.239 | inactive: 0.045
TMUB1 (UniProt Q9BVT8) | inactive: 0.018 | inactive: -0.036 | inactive: 0.054 | inactive: -0.051 | inactive: -0.035 | inactive: 0.087 | inactive: 0.064 | inactive: -0.059 | inactive: 0.122 | inactive: 0.066 | inactive: -0.008 | inactive: -0.032 | inactive: 0.057 | inactive: 0.057 | inactive: 0.041 | inactive: 0.03 | inactive: -0.353 | inactive: 0.02 | inactive: -0.087 | inactive: -0.008
TMEM87A (UniProt Q8NBN3) | inactive: 0.032 | inactive: -0.007 | inactive: -0.025 | inactive: 0.008 | inactive: -0.006 | inactive: -0.026 | inactive: -0.114 | active: 0.332 | inactive: -0.001 | inactive: 0.017 | inactive: -0.076 | inactive: -0.013 | inactive: -0.012 | inactive: -0.006 | inactive: -0.017 | inactive: 0.022 | inactive: -0.045 | inactive: -0.02 | inactive: 0.015 | inactive: 0.022
TOR1AIP1 isoform 3 (UniProt Q5JTV8) | inactive: 0.013 | inactive: 0 | inactive: 0.007 | inactive: 0.049 | inactive: 0.026 | inactive: -0.016 | inactive: -0.087 | inactive: 0.029 | inactive: 0.026 | inactive: -0.017 | inactive: -0.011 | inactive: 0.034 | inactive: 0.01 | inactive: 0.023 | inactive: 0.01 | inactive: -0.017 | inactive: -0.051 | inactive: -0.02 | inactive: -0.004 | inactive: 0.043
TOR2A (UniProt Q5JU69) | inactive: 0.038 | inactive: 0.006 | inactive: -0.044 | inactive: 0.023 | inactive: 0.023 | inactive: -0.035 | inactive: 0.122 | inactive: -0.089 | inactive: 0.032 | inactive: 0.067 | inactive: -0.087 | inactive: -0.034 | inactive: 0.011 | inactive: 0.011 | inactive: 0.081 | inactive: -0.055 | inactive: -0.072 | inactive: -0.05 | inactive: 0.051 | inactive: 0.088
TMEM62 (UniProt Q0P6H9) | inactive: 0.018 | inactive: 0.025 | inactive: 0.058 | inactive: -0.01 | inactive: 0.023 | inactive: -0.072 | inactive: -0.083 | inactive: 0.21 | inactive: 0.076 | inactive: 0.012 | inactive: 0 | inactive: 0.029 | inactive: 0.052 | inactive: 0.033 | inactive: 0.138 | inactive: -0.008 | inactive: -0.012 | inactive: 0.01 | inactive: -0.09 | inactive: -0.105
TOR1AIP2 (UniProt Q9H496) | inactive: 0.129 | inactive: -0.106 | inactive: 0.028 | inactive: -0.035 | inactive: 0.376 | inactive: -0.01 | inactive: -0.086 | inactive: -0.081 | inactive: 0 | inactive: -0.011 | inactive: 0.02 | inactive: -0.09 | inactive: 0.119 | inactive: -0.041 | inactive: -0.359 | inactive: 0.041 | inactive: 0.071 | inactive: 0.019 | inactive: 0.155 | inactive: -0.015

Single entries from the list.
log2 fold change [2], TMEM97 (UniProt Q5BJF2) is entered as inactive: 0.028
log2 fold change (alisertib), TPM4 isoform 2 (UniProt P67936) is entered as inactive: -0.098

— the supplement of paper PMC10849652
